“And” between values parts separate entries of the source, which are not always exact repeats. Equal values may be shown once.
Key:
[1] = tested on: gamma-secretase; assay: Six-day once-a-day oral dosing PK/PD in Sprague Dawley rats; format: in vivo; conditions: 24 hrs post final dose; for Brain exposure / Plasma exposure: rat
Description: (§1) Female transgenic mice (Tg2576, 3 months of age; n = 20), wild-type male CD-1 mice (six weeks of age; n = 8 to 12) or wild-type male Sprague Dawley rats (200 to 225 g body weight; n = 12) were utilized to assess in vivo efficacy.
(§2) For wild-type rat and mouse studies, all animals were acclimated to the test facility for a minimum of two days prior to initiation of the study. Compounds were dosed orally in 10:20:70 ethanol/solutol/water or 10:20:70 ethanol/cremaphor/water via oral gavage. Samples were harvested at either at 6 or 24 hrs post dose for Aβ and compound exposure measurements. Blood samples were collected into K2ethylenediaminetetraacetic acid (EDTA) and stored on wet ice until processed to plasma by centrifugation (3,500 rpm at 5°C) within 30 minutes of collection. Each brain was dissected into three parts: left and right hemispheres and cerebellum. Brain tissues were rinsed with ice cold PBS (without Mg^2+ or Ca^2+), blotted dry and weighed. Plasma and cerebella were analyzed for parent drug via liquid chromatography/tandem mass spectrometry (LC/MS/MS). Parent drug levels were compared to a standard curve to establish the plasma and brain levels.
(§3) This protocol is a modification of protocols described by Lanz and Schachter and Rogers et al.. Frozen hemispheres were weighed into tared homogenization tubes (MP Biomedicals#6933050 for rat; MP Biomedicals, Solon, OH, USA) and (Simport#T501-4AT; Simport, Beloeil, Qc, Canada) containing one 5-mm stainless steel bead (Qiagen#69989 for mouse). For every gram of brain, 10 mLs of either 6 M guanidine hydrochloride (wild-type rat and mouse) or 0.2% diethyl amine in 50 mM NaCl (transgenic mouse) was added to the brain-containing tubes on wet ice. Rat hemispheres were homogenized for one minute and mouse hemispheres were homogenized for 30 seconds at the 6.5 setting using the FastPrep-24 Tissue and Cell homogenizer (MP Biomedicals#116004500). Homogenates were rocked for 2 hrs at 4°C, then pre-cleared by ultracentrifugation at 100,000 × g for one hour at 4°C. Pre-cleared wild-type rat and mouse homogenates were concentrated over solid phase extraction (SPE) columns (Oasis HLB 96-well SPE plate 30 μm, Waters#WAT058951; Waters Corp., Milford, MA, USA). Briefly, SPE columns were prepared by wetting with 1 mL of 100% methanol followed by dH20 using vacuum to pull liquids through. Brain homogenates were then added to the prepared columns (1.0 mL from rat and 0.7 mL from wild-type mouse). Columns were washed twice with 1 mL of 10% methanol followed by two 1 mL washes with 30% methanol. Labeled eluent collection tubes (Costar cluster tubes #4413; Corning Inc., Corning, NY, USA) were placed under SPE columns and samples were eluted under very mild vacuum with 300 μL of 2% NH4OH/90% methanol. Eluents were dried to films under vacuum with no heat in a speed vacuum microcentrifuge. Films were resuspended in 150 μL of Meso Scale Discovery (MSD, Gaithersburg, MD, USA) blocking buffer (1% BSA in MSD wash buffer) for one hour at room temperature with occasional vortexing. Transgenic mouse plasma (50 μL) was extracted in 500 μL of 6 M guanidine hydrochloride briefly at room temperature and then 450 μL was concentrated over SPE columns and dried to films as described above. Transgenic plasma films were resuspended in 225 μL of MSD blocking buffer. Pre-cleared transgenic mouse brain homogenates were diluted and neutralized as follows. A volume of 45 μL of pre-cleared transgenic mouse brain homogenates were diluted into 450 μL of blocking buffer and were neutralized with 5 μL of 0.5 M Tris pH 6.8. For Aβ38, Aβ40 and Aβ42 measurements, MSD 96-well multi-spot Human/Rodent (4G8) Aβ triplex ultra-sensitive ELISA plates, which are pre-spotted with three separate spots in each well containing capture antibodies against the unique C-terminal ends of Aβ38, Aβ40 and Aβ42, respectively, were blocked with MSD blocking buffer for one hour at room temperature with orbital shaking. […]

[2] = tested on: gamma-secretase; assay: Single oral dose PK/PD in Sprague Dawley rats (brain Aβ, compound exposure); format: in vivo; conditions: 24 hrs post dose; for %Aβ40 lowering / %Aβ38 lowering / %Aβ42 lowering: rat brain, vs vehicle; for Brain exposure / Plasma exposure: rat
Description: as §1, §2, §3

[3] = Plasma protein binding (in vitro studies); format: in vitro ADME
[4] = Pharmacokinetic properties in mouse; format: in vivo
[5] = tested on: gamma-secretase; assay: Six-day BID oral dosing PK/PD in wild-type CD-1 mice; format: in vivo; conditions: for %Aβ38 lowering / %Aβ40 lowering / %Aβ42 lowering: CD-1 mouse brain, 6 hrs, vs vehicle; for Brain exposure / Plasma exposure: 6 hrs post final dose
Description: as §1, §2, §3

[6] = Pharmacokinetic properties in rat; format: in vivo
[7] = single oral dose 10 mg/kg, 10 mg/kg
[8] = single oral dose 30 mg/kg, 30 mg/kg
[9] = single oral dose 100 mg/kg, 100 mg/kg
[10] = 30 mg/kg oral BID six days, 30 mg/kg
[11] = 50 mg/kg oral BID six days, 50 mg/kg
[12] = CD-1 mouse, 15 mg/kg oral BID six days, 15 mg/kg
[13] = CD-1 mouse, 30 mg/kg oral BID six days, 30 mg/kg
[14] = CD-1 mouse, 50 mg/kg oral BID six days, 50 mg/kg
[15] = CD-1 mouse, BID six days, extrapolated from best-fit line, total

- Brain exposure ([1]; 10 mg/kg oral QD six days): 4.4 ± 0.2 µM
- Plasma exposure ([1]; 10 mg/kg oral QD six days): 8.0 ± 0.4 µM
- Brain exposure ([1]; 30 mg/kg oral QD six days): 16 ± 1 µM
- Plasma exposure ([1]; 30 mg/kg oral QD six days): 13 ± 1 µM
- Plasma exposure ([1]; 60 mg/kg oral QD six days): 19 ± 1 µM
- Brain exposure ([2]; single oral dose 10 mg/kg): 2.8 ± 0.3 µM
- Plasma exposure ([2]; single oral dose 10 mg/kg): 3.3 ± 0.1 µM
- Brain exposure ([2]; single oral dose 30 mg/kg): 11 ± 1 µM
- Plasma exposure ([2]; single oral dose 30 mg/kg): 8.5 ± 0.3 µM
- Brain exposure ([2]; single oral dose 100 mg/kg): 33 ± 2 µM
- Plasma exposure ([2]; single oral dose 100 mg/kg): 14 ± 1 µM
- free compound in plasma [3]: 2.4%
- protein bound in the plasma ([3]; in vitro studies): 97.6%
- Tmax [4]: approximately 4 hrs
- half-life [4]: 8 h
- T1/2 ([4]; intravenous drug delivery data): 8.3 h
- Volume ([4]; intravenous drug delivery data): 9.2 L/kg
- plasma free-fraction ([5]; CD-1 mouse, 15 mg/kg BID (low dose), calculated): 82 nM
- Brain exposure [5, 12]: 3.6 ± 0.1 µM
- Plasma exposure [5, 12]: 3.4 ± 0.2 µM
- plasma free-fraction ([5]; CD-1 mouse, 30 mg/kg BID, calculated): 105 nM
- Brain exposure [5, 13]: 8.7 ± 1 µM and 8.7 ± 1.0 µM
- Plasma exposure [5, 13]: 4.4 ± 0.3 µM
- plasma free-fraction ([5]; CD-1 mouse, 50 mg/kg BID, calculated): 182 nM
- Brain exposure [5, 14]: 22 ± 1 µM
- Plasma exposure [5, 14]: 7.6 ± 0.3 µM
- brain free-fraction level ([5]; CD-1 mouse, highest dose (50 mg/kg BID), calculated): 22 ± 1 nM
- half-life ([6]; following a single oral dose): > 24 h
- T1/2 ([6]; intravenous drug delivery data): 129 h
- Volume ([6]; intravenous drug delivery data): 5.8 L/kg
Compound: CCO[C@@H]([C@H]1C[C@@H](C)[C@H]2[C@@H](O1)[C@H](O)[C@@]1(C)[C@@H]3CC[C@H]4C(C)(C)[C@@H](O[C@H]5CN(C6CN(C(C)C)C6)CCO5)CC[C@@]45C[C@@]35CC[C@]21C)C(C)(C)O [SPI-1865]
- %Aβ42 lowering ([1]; rat brain, 60 mg/kg oral QD six days, vs vehicle, 60 mg/kg): 66 ± 1%
- %Aβ40 lowering ([2]; single oral dose 10 mg/kg): 1 ± 5%
- %Aβ38 lowering [2, 7]: 26 ± 5%
- %Aβ42 lowering [2, 7]: 21 ± 6%
- %Aβ38 lowering [2, 8]: 36 ± 3%
- %Aβ40 lowering [2, 8]: 14 ± 4%
- %Aβ42 lowering [2, 8]: 37 ± 5%
- %Aβ38 lowering [2, 9]: 47% and 47 ± 5 %
- %Aβ40 lowering [2, 9]: 22 ± 5%
- %Aβ42 lowering [2, 9]: 50 ± 5%
- %Aβ38 lowering ([5]; 15 mg/kg oral BID six days): 13 ± 4%
- %Aβ40 lowering ([5]; 15 mg/kg oral BID six days): 3 ± 2%
- %Aβ42 lowering ([5]; 15 mg/kg oral BID six days, 15 mg/kg): 22% and 22 ± 4%
- %Aβ38 lowering [5, 10]: 30 ± 3 %
- %Aβ40 lowering [5, 10]: 11% and 11 ± 2 %
- %Aβ42 lowering [5, 10]: 39 ± 2% and 39% and 39 ± 3%
- %Aβ40 lowering ([5]; 50 mg/kg oral BID six days): 9 ± 2%
- %Aβ38 lowering [5, 11]: 28 ± 2 %
- %Aβ42 lowering [5, 11]: 47 ± 2% and 47%
- ED50 (brain exposure for 50% brain Aβ42 lowering) [5, 15]: 25.2 µM
- ED50 (plasma exposure for 50% brain Aβ42 lowering) [5, 15]: 5.9 µM
- brain exposure for 25% brain Aβ42 lowering [5, 15]: 3.8 µM
- plasma exposure for 25% brain Aβ42 lowering [5, 15]: 2.3 µM

Reference: paper PMC3707052 (Alzheimer's Research & Therapy, 2013)
